In all, about 340,000 compounds went through this assay and about 170 (0.05%) were called active. Inconclusive means that the source gave no clear call. Such entries were picked first, then a sample of the others. Calls follow the shape of the dose curve; as a rule, active = well fitted inhibition curve with a large enough effect in the signal ratio, with a control signal flat (not every such curve was filed as active); inconclusive = small, poorly fitted or top-dose-only effect, or effect the other way, or a change in a side signal; inactive = flat fitted curve, though single readings scatter; the % refers to the signal ratio. Potencies beside an inconclusive call are fits to weak or partial responses and may not hold up.
assay: qHTS Assay to Find Inhibitors of Chronic Active B-Cell Receptor Signaling; details: ABC-DLBCL IkBa-CBG/CBR reporter, luminescence ratio (green luciferase fused to IkBa over red control in TMD8 lymphoma cells), 4 h; activity change, negative = inhibition: at 46.1 µM (top of the series);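 as to activity change, negative = inhibition: plate controls were basal doxycycline-induced cells for no effect and cells given 10 µM MG132 for full effect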
How it was run: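 Cell line TMD8 (human ABC DLBCL), stably expressing tet-inducible CBG68-IkBa fusion and CBR; IMDM/0.5% FBS; cpd up to 46 uM; dox induction, 4 h, 37C/5% CO2; dual luminescence; green/red ratio; MG132 control.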
Potency is read from the fitted curve at half-maximal effect.

Row | Structure (SMILES) | activity change, negative = inhibition | Potency
1 | C#CCOCCOCCOCCNc1nc(N2CCN(C(=O)CCCCCCCCCCNC(=O)[C@H]([C@@H](C)CC)n3cc(CCCCN=C(N)N)nn3)CC2)nc(N2CCN(C(=O)CCCCCCCCCCNC(=O)[C@@H]([C@H](C)O)n3cc(C)nn3)CC2)n1 | inconclusive: -0.417% | 
2 | COc1ccc(CC(=O)N2N=C(c3ccncc3)CC2(O)C(F)(F)F)cc1 (stereo not drawn) |  | inconclusive: 17.8 µM [falling, single point]
3 | CC[C@](C)(O)c1cc2ccccc2c(=O)o1 | inconclusive: 0.133% | 
4 | CCCSc1nc(N2CCOCC2)c2c(c1C#N)CC(C)(C)SC2 |  | inconclusive: 0.291 µM [falling, partial curve, poor fit]
5 | N#Cc1c(N)nc2c(c1-c1ccncc1)CCCCC2 | inactive: 5.59% | 
6 | CC(=O)Nc1ccc(N/C=C/C(=O)c2ccco2)cc1 |  | inconclusive: 29.1 µM [falling, single point]
7 | O=C(O)CNS(=O)(=O)c1ccc(-c2ccccc2)cc1 | inactive: -1.89% | 
8 | CC(C)c1ccc(C(=O)NNC(=O)c2n[nH]c(=O)c3ccccc23)cc1 | inconclusive: 8.08% | 
9 | COc1ccc(OC)c(NC(=O)Cc2csc(NC(=O)Nc3ccccc3OC)n2)c1 | inconclusive: 26.9% | 
10 | Cc1nc(CSc2ccc(Br)cc2)cs1 | inconclusive: 5.88% | 
11 | O=C(NC(=S)NCc1cccnc1)c1ccc([N+](=O)[O-])cc1 | inactive: 4.84% | 
12 | COc1ccccc1-n1nnnc1SCC(=O)Nc1ccccn1 | inconclusive: 6.95% | 
13 | Cn1nc(C(F)(F)F)c(C(=O)Nc2ccc(F)cc2F)c1Sc1cccc(C(F)(F)F)c1 |  | inconclusive: 11.2 µM [rising, partial curve, poor fit]
14 | COc1ccc(CCC(=O)OCC(=O)Nc2ccc3[nH]c(=O)[nH]c3c2)cc1 | inactive: 1.26% | 
15 | c1ccc(-c2cc(-c3ccccc3)on2)cc1 | inconclusive: -25.3% | 
16 | COc1ccc(OC)c(-c2[nH]nc3c2C(c2ccco2)C(C#N)=C(N)O3)c1 (stereo not drawn) | inconclusive: 1.18% | 
17 | COCCn1c(CN2CCN(c3cccc(Cl)c3)CC2)nc2c1c(=O)n(C)c(=O)n2C | inconclusive: -8.77% | 
18 | Cc1cc(C(C)(C)C)oc1C(=O)N(CC(=O)NC1CCCC1)c1cccc(C(F)(F)F)c1 | inconclusive: 8.83% | 
19 | COc1ccc(N(CC(=O)NC2CCCC2)C(=O)c2ccc(N3CCCCC3)nc2)cc1 | inconclusive: 0.428% | 
20 | CN(c1ccccc1)S(=O)(=O)c1cccc(C(=O)NCc2ccccc2CN2CCCC2)c1 | inconclusive: -11.2% | 
21 | COc1ccc(-c2cn(CCc3c[nH]c4ccccc34)nn2)cc1 | inactive: -0.421% | 
22 | CN1CCN(C(=O)CN2C(=O)CC(C)(C)S(=O)(=O)c3ccccc32)CC1 | inconclusive: 26.8% | 
23 | C/C=C/Cn1c(Br)nc2c1c(=O)[nH]c(=O)n2C | inconclusive: -3.36% | 
24 | Cc1c(O)c(S(=O)(=O)c2ccccc2)c(=O)n(-c2ccccc2)c1-c1ccccc1 | inconclusive: -6.35% | 

Row | Structure (SMILES) | activity change, negative = inhibition | Potency
25 | Cc1csc(SCC(=O)NCCc2ccc(Cl)cc2Cl)n1 | inconclusive: -22.2% | 
26 | COc1ccc2c(c1)CC/C2=N\OC(=O)c1cccc(C)c1 | inconclusive: -7.12% | 
27 | COc1ccc(Cl)cc1N1C(=O)C2CCCN2C1c1sccc1C (stereo not drawn) | inconclusive: -23% | 
28 | COc1cc(/C=C/C(=O)OCC(=O)NCc2ccco2)ccc1OCC#N |  | inconclusive: 11.2 µM [falling, partial curve, poor fit]
29 | COc1ccc(-c2nc(CS(=O)(=O)CC(=O)NCc3cccc(OC)c3OC)c(C)o2)cc1 |  | inconclusive: 11.2 µM [falling, partial curve, poor fit]
30 | Cc1ccc(C(=O)NC(=C(Cl)Cl)S(=O)(=O)c2ccccc2)cc1 |  | inconclusive: 20.6 µM [falling, partial curve, poor fit]
31 | O=S(=O)(CCN1C=CC(C(F)(F)F)=NCC1)c1ccc(Cl)cc1Cl | inactive: 3.94% | 
32 | C/C(=N/NS(=O)(=O)c1ccc(C)cc1)c1c(O)c2ccccc2oc1=O |  | inconclusive: 7.08 µM [falling, partial curve]
33 | C=CCNC(=O)CCCOc1ccc(C)cc1 | inconclusive: 24.8% | 
34 | O=[N+]([O-])c1ccc(S(=O)(=O)N2CCN=C2SCc2cccnc2)cc1 | inconclusive: 24% | 
35 | Cc1[nH]n(-c2ccccc2)c(=O)c1/C=N\NC(=O)C1COc2ccccc2O1 (stereo not drawn) |  | inconclusive: 0.92 µM [activator, partial curve]
36 | COCCn1c(=O)[nH]c2cc(C(=O)N3CCN(c4cc(C)ccc4C)CC3)ccc2c1=O | inconclusive: 8.85% | 
37 | COc1cc(OC)c2c(-c3ccccc3)cc(=O)oc2c1C(CC(=O)N1CCN(c2ccccc2)CC1)c1ccc(N(C)C)cc1 (stereo not drawn) | inconclusive: 1.46% | 
38 | COc1ccc(NC(=O)c2ccccc2Cl)cc1NC(=O)CN1CCOCC1 |  | inconclusive: 29.1 µM [falling, single point]
39 | CC(C)c1nnc(NC(=O)c2cccc(NC(=O)C(F)(F)F)c2)s1 |  | inconclusive: 20 µM [falling, partial curve, poor fit]
40 | O=C(c1ccc(Cl)c(Cl)c1)N1CCC(=O)N(C(COCc2cccc(Cl)c2)Cc2ccccc2)CC1 (stereo not drawn) | inconclusive: -15.8% | 
41 | Cc1ccc(C)c(S(=O)(=O)N2CCN(C(=O)CSc3ccccc3F)CC2)c1 | inactive: -0.0049% | 
42 | COc1ccccc1NCC(=O)N/N=C(\C)c1cccs1 |  | inconclusive: 2.82 µM [falling, full curve, poor fit]
43 | Cn1cc(CNC(=O)c2cc(COc3ccc4c(c3)CCCC4)on2)cn1 | inconclusive: -12.7% | 
44 | C/C(CC(=O)Nc1cccnc1)=N\NC(=O)C(=O)NC(C)C | inconclusive: -6.17% | 
45 | Cc1cc(Cl)ccc1OCC(=O)NNC(=O)C1CCN(c2ncnc3sc(C)c(C)c23)CC1 | inconclusive: -28.8% | 
46 | CCc1nnc(NC(=O)CSc2nc(N)c(NC(=O)c3ccc(OC)cc3)c(=O)[nH]2)s1 | inactive: -1.92% | 
47 | Fc1ccc(Nc2nc(SCc3ccccc3Cl)nc3ccccc23)cc1 |  | inconclusive: 3.98 µM [rising, partial curve]
48 | COc1ccc(C2=CC(c3sccc3C)n3nnnc3N2)cc1 (stereo not drawn) | inconclusive: -3.65% | 

Looked up above:
activity change, negative = inhibition with Cc1ccc(C)c(S(=O)(=O)N2CCN(C(=O)CSc3ccccc3F)CC2)c1 reads inactive: -0.0049%
Potency with COc1ccccc1NCC(=O)N/N=C(\C)c1cccs1 reads inconclusive: 2.82 µM [falling, full curve, poor fit]

Source: PubChem BioAssay AID493014 (National Center for Advancing Translational Sciences (NCATS), 2011)
